The nature of the data set: peptide synthesis.

Strings that start with PEPTIDE1 are HELM notation: dots part the residues, brackets hold end groups and non-standard residues.

In turn, “PEPTIDE1{R.G.D.[dY].K}|CHEM1{[JH139-CONH-EDEA-NHCO]}$PEPTIDE1,PEPTIDE1,1:R1-5:R2|PEPTIDE1,CHEM1,5:R3-1:R2$$$V2.0” had a conjugation yield (conjugation step) of 88%.

For the substance “PEPTIDE1{R.G.D.[dY].K}|CHEM1{[JH139-COO-TEG-OCO]}$PEPTIDE1,PEPTIDE1,1:R1-5:R2|PEPTIDE1,CHEM1,5:R3-1:R2$$$V2.0”, the conjugation yield (conjugation step) is recorded as 56%. Moreover, where the note is “conjugation step, LC-MS (stated for geo75)”, the “final LC-MS purity” value was “greater than 98%”.

As to “PEPTIDE1{R.G.D.[dY].K}|CHEM1{[JH139-glutaryl]}$PEPTIDE1,PEPTIDE1,1:R1-5:R2|PEPTIDE1,CHEM1,5:R3-1:R2$$$V2.0”, for the setting “conjugation step”, the conjugation yield is given as 45%.

Substance “PEPTIDE1{R.G.D.[dY].K}|PEPTIDE2{[JH139-CONH-EDEA-NHCO].K}$PEPTIDE1,PEPTIDE1,1:R1-5:R2|PEPTIDE1,PEPTIDE2,5:R3-2:R2$$$V2.0” returned a step yield (late stage modification step) of 90%.

The record behind these values is PMC9962512 (Pharmaceutics, 2023).
